# Data taken from US11892401B2, “Boronic acid appended naphthyl-pyridinium fluorescent saccharide sensors for early detection of gastrointestinal diseases” (The Board of Trustees of the Leland Stanford Junior …, priority 2018, dated 2024).
# Some of these results come from one statement about several compounds together.
# Test: Stern-Volmer quenching of HPTS anionic reporter dye
# Type: binding
# Details: HPTS or TSPP 4 μM, dye:quencher 1:38
# Protocol: Stern-Volmer quenching of HPTS and TSPP anionic reporter dyes: Stock solutions of exemplary boronic acid compounds (1, 3, and 4) were initially prepared in DMS (1 mg/mL) and then diluted in 0.1 M sodium phosphate buffer pH 7.4 to obtain the desired initial 2-fold concentration. Fluorescence measurements were conducted in a 96-well plate (Corning #3694) and to each well were added 20 μL of each exemplary compound and 8 μM of HPTS or TSPP in triplicate. Initial fluorescence wells contained 20 μL of each reporter dye and 20 μL of buffer. Blank wells received 40 μL of buffer only. Measurements were performed using a Tecan infinite M1000 instrument a plate reader (gain 100, flashes 30, z-position 1.8 cm) Plates were shaken for 30 seconds (2 mm orbital amplitude) prior to reading. After blank subtraction, fluorescence intensity relative to initial total fluorescence of HPTS or TSPP (Fo/F) for each sample was calculated.
# Given the cationic character of the subject receptor compounds, their ability to form a non-fluorescent ground state complex with anionic reporter dyes, such as HPTS and TSPP was investigated. The fluorescence quenching of each dye can be quantitatively monitored by Stern-Volmer analysis (Albrecht, C., Anal. Bioanal. Chem. 2008, 390 (5), 1223-1224). Two types of quenching can exist, static quenching, due to complex formation, and dynamic quenching, due to collisional encounters between the dye and quencher. […] The effects of adjusting the quencher to dye ratio for HPTS and TSPP with each of compounds 1, 3, and 4 while monitoring the decrease of fluorescence for each dye are shown in FIG. 5, panel A (HPTS) and FIG. 5, panel B (TSPP).
# With each of compounds 1, 3 and 4 only having two cationic groups, it was anticipated anticipated that higher (>400 μM) amounts of each quencher would be required to achieve at least 80% of quenched fluorescence. […] Using the fluorescence data, the quenching efficiency can be determined using the available Stern-Volmer fitting models. […]
row,Structure (SMILES),amount of quencher needed to achieve about 80% of quenched fluorescence
1,OB(O)c1ccccc1C[n+]1ccc(-c2ccc3cc(-c4cc[n+](Cc5ccccc5B(O)O)cc4)ccc3c2)cc1 [Compound 3],< 150 µM
2,OB(O)c1ccccc1C[n+]1ccc(-c2ccc3ccc(-c4cc[n+](Cc5ccccc5B(O)O)cc4)cc3c2)cc1 [Compound 4],< 150 µM
3,OB(O)c1cc(C[n+]2ccc(-c3ccc4ccccc4c3)cc2)cc(C[n+]2ccc(-c3ccc4ccccc4c3)cc2)c1 [Compound 1],< 150 µM
